The values below come from paper PMC10021989.

Amino acid sequences for entries named in this document (tags omitted).
UniProt Q9DCJ1: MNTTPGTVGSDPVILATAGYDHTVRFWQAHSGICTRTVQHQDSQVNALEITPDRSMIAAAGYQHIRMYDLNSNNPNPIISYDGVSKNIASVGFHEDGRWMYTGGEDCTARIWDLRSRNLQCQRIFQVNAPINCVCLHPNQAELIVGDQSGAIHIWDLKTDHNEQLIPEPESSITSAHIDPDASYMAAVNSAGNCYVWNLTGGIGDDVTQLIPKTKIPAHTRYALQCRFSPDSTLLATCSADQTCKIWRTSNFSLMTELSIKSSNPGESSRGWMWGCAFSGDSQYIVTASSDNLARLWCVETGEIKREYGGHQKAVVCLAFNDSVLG
UniProt Q6QI06: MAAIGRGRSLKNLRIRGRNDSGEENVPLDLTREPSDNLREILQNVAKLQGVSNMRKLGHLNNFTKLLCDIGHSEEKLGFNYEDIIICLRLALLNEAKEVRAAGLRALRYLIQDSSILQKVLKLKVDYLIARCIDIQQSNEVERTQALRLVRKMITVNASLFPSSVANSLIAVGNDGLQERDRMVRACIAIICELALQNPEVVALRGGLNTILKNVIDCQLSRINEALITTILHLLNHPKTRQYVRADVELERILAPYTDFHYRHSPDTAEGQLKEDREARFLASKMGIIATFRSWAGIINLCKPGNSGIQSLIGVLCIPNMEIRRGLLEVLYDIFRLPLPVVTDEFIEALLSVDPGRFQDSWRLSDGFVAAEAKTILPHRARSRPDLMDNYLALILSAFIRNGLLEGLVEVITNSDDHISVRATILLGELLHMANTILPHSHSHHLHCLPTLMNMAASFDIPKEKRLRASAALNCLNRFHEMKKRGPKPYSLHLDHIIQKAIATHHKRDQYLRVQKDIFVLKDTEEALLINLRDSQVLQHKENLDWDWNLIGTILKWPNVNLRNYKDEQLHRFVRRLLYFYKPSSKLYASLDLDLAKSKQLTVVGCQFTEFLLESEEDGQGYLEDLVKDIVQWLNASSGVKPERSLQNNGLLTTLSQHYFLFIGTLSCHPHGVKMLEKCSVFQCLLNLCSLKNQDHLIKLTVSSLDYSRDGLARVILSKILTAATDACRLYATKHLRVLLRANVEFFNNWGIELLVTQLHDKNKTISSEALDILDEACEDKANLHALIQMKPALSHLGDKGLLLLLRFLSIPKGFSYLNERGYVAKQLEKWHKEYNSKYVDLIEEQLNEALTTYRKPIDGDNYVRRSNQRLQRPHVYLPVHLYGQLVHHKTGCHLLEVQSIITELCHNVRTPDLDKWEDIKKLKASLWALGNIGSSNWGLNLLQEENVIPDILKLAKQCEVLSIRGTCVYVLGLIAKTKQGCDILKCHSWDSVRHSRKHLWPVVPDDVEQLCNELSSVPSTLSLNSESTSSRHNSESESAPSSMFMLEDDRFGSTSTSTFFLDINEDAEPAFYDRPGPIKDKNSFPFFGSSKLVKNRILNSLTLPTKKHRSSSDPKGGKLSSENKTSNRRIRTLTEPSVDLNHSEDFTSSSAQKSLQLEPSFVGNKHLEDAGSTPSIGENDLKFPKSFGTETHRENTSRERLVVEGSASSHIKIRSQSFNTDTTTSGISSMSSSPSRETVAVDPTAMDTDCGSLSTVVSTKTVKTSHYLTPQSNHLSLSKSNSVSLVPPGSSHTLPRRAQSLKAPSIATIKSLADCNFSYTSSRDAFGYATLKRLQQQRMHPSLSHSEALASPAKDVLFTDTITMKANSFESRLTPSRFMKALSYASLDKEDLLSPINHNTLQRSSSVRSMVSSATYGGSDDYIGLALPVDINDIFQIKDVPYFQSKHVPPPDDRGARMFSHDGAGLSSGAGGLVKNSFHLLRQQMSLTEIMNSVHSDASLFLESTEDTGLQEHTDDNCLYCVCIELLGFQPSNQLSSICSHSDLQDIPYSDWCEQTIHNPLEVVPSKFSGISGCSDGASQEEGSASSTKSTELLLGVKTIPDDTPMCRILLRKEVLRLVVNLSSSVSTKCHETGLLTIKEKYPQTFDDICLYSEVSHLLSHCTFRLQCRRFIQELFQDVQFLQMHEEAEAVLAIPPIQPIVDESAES
UniProt Q8K4Q0: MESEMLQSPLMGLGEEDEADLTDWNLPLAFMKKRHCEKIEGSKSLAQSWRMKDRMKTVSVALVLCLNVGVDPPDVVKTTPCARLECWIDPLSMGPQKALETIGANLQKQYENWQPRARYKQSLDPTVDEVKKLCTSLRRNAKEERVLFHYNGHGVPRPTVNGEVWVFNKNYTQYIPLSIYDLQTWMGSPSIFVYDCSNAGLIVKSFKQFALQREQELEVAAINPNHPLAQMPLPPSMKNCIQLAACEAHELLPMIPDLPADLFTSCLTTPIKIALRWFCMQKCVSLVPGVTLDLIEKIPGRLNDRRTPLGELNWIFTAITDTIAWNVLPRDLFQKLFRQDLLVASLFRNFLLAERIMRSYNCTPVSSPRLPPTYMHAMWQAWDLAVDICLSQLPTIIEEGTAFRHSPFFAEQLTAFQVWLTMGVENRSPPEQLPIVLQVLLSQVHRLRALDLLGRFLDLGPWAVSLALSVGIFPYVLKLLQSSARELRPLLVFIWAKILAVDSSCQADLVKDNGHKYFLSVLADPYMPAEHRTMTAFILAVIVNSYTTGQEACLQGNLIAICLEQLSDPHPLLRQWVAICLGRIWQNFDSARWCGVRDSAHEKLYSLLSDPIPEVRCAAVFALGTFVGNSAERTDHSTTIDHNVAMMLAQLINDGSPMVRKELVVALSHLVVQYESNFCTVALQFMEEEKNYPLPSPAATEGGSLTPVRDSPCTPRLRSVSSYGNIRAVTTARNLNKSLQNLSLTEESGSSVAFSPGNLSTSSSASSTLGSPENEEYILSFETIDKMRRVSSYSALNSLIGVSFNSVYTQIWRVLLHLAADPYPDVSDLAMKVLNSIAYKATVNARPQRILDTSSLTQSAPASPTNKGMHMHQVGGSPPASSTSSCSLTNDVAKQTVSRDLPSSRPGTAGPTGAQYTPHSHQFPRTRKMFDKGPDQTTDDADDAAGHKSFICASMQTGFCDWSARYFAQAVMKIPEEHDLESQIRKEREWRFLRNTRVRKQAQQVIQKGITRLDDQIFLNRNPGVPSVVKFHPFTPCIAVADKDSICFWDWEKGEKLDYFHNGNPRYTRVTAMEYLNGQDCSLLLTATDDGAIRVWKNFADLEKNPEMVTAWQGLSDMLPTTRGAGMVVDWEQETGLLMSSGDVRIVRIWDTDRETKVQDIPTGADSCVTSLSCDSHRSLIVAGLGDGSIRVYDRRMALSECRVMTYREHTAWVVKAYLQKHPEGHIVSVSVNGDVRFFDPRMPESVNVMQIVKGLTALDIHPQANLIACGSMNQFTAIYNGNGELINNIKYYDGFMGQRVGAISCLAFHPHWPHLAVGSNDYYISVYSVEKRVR
UniProt Q8BKH7: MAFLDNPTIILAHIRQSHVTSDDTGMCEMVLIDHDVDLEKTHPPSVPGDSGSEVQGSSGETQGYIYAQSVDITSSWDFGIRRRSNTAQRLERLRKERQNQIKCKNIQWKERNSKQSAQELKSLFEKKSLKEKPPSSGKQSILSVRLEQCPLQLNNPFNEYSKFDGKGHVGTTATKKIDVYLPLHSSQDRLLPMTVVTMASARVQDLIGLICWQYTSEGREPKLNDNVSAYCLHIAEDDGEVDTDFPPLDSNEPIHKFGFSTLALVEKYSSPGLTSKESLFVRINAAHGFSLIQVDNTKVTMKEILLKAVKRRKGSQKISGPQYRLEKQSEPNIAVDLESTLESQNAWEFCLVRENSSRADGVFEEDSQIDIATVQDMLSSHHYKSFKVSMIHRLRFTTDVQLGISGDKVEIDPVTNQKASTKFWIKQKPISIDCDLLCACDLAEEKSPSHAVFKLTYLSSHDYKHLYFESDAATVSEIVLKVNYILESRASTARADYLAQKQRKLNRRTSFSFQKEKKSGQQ

No constants are given. Whether binding was seen depends on the method and setting. In cells and extracts the contact can be indirect. Some binding calls cover weakened binding; strength is not graded here.

The target of the assay is G protein beta subunit-like protein (GβL) (mouse (endogenous in MFLECs)) (UniProt Q9DCJ1). Put plainly: co-IP; lysates of primary MFLECs (5 mM glucose control or 30 mM glucose; also with si-NC or TRAF2 siRNA) incubated with protein A beads pre-bound with an anti-GβL antibody at 4 °C overnight; precipitates analysed by western blot. A general note: In western blotting, separated proteins are transferred to a membrane and probed.
With “rapamycin-insensitive companion of mTOR (Rictor) (from UniProt Q6QI06 1-1708)”, the binding result is reported as “binds”.

Consider “regulatory-associated protein of mTOR (Raptor) (from UniProt Q8K4Q0 1-1335)”, for which the binding entry is given as “binds”.

As for “stress-activated protein kinase interacting protein 1 (Sin1) (from UniProt Q8BKH7 1-522)”, the binding entry is “binds”.
